Here are results for 7 compounds from the supplement of paper PMC4604168 (melanoma cell lines).

Molecules are shown by their SMILES. This is one part of the list. Repeats are few or missing, and single values can be far off.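 Cells were imaged in 1,536-well plates, and nuclei stained with an antibody against cleaved PARP were counted against all DNA-stained nuclei to give the apoptosis fraction. Screening doses were chosen to leave most cells alive, and resting and induced cleaved-PARP levels differ strongly between cell lines.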

The subject of this assay is COLO792. The assay can be described thus: cleaved PARP positive nuclei fraction relative to DMSO control; melanoma cells; higher = more apoptosis. The conditions noted are these: library dose: low library concentration; 72 h.
Turning to `CN(c1ncccc1CNc1nc(Nc2ccc3c(c2)CC(=O)N3)ncc1C(F)(F)F)S(C)(=O)=O` + CO[C@@H]1[C@H](N(C)C(=O)c2ccccc2)C[C@H]2O[C@]1(C)n1c3ccccc3c3c4c(c5c6ccccc6n2c5c31)C(=O)NC4 [Midostaurin] (first compound 0.08 µM, partner dose 0.08 µM), the “cleaved PARP positive nuclei fraction” value was 132%.
To `Cn1sc(=O)n(Cc2ccccc2)c1=O` + c1cc(-c2cnn3cc(-c4ccc(OCCN5CCCCC5)cc4)cnc23)ccn1 [Dorsomorphin] (first compound 0.4 µM, partner dose 0.4 µM) belongs 119%; to `CC(=O)O[C@@]12CO[C@@H]1C[C@H](O)[C@@]1(C)C(=O)[C@H](O)C3=C(C)[C@@H](OC(=O)[C@H](O)[C@@H](NC(=O)OC(C)(C)C)c4ccccc4)C[C@@](O)([C@@H](OC(=O)c4ccccc4)[C@H]21)C3(C)C` [Docetaxel] + N#Cc1c(O)c2c(-c3ccc(-c4ccccc4O)cc3)csc2[nH]c1=O [A769662] (first compound 0.0001 µM, partner dose 2 µM), 533%; to `Cn1cnc2c(F)c(Nc3ccc(Br)cc3Cl)c(C(=O)NOCCO)cc21` [selumetinib] + OCCn1cc(-c2cnc3nnn(Cc4ccc5ncccc5c4)c3n2)cn1 [PF04217903] (first compound 0.015 µM, partner dose 1 µM), 98.9%.
To `Cn1cnc2c(F)c(Nc3ccc(Br)cc3Cl)c(C(=O)NOCCO)cc21` [selumetinib] + Oc1cc(-c2nc(-c3ccccc3)[nH]c2-c2ccncc2)ccc1Cl [L779450] (first compound 0.015 µM, partner dose 0.2 µM) belongs 90.2%; to `Cn1sc(=O)n(Cc2ccccc2)c1=O` + CCCCCCCCCCCC1=C(O)C(=O)C=C(O)C1=O [Embelin] (first compound 0.4 µM, partner dose 1.2 µM), 78.1%.
To `CCN(CC)CCNC(=O)c1c(C)[nH]c(/C=C2\C(=O)Nc3ccc(F)cc32)c1C` [sunitinib] + CCc1ccc(CCOc2ccc(CC3SC(=O)NC3=O)cc2)nc1 [pioglitazone] (first compound 0.4 µM, partner dose 2 µM) belongs 148%.
